# According to the supplement of paper PMC8728848:
# Some of the results follow.
# B1: Loc1 (Escherichia coli) (protein)
# chain: APCALTNVGEQRGTYILKPLSMKGNLTAEKIENTGNIIECTDLQETTNAIKVHFLTQNALKFKVGSRHYIINFPFEYDGKKIELPGKSSYNLEEMLSAINFTIPYSIASVSDSSNTADIFPGTPFPLLFEIEVSSCTGNNTNCNSVRFNYNLNTILQVNLMTHHHHHH
# What was measured:
# Assay in all cases: glycan array binding signal (z-score within array); higher = stronger binding
# Settings in all cases: glycan notation: IUPAC condensed, linker removed
# [1] = target: Gal3S(b1-4)Glc
# Method in brief: (§1)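 The binding signal is a Z-score computed within each array. Data were drawn from 3228 arrays in the Consortium for Functional Glycomics database, restricted to those with a known protein sequence. Scores were averaged over arrays of the same protein sequence at different concentrations or buffers, and over linkers, and negative values can be taken as non-binding.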
# [2] = target: Gal3S(b1-4)Glc6S
# Method in brief: as §1
# [3] = target: Gal3S(b1-4)GlcNAc
# Method in brief: as §1
# [4] = target: Gal3S(b1-4)[Fuc(a1-3)]Glc6S
# Method in brief: as §1
# [5] = target: Gal3S(b1-4)[Fuc(a1-3)]GlcNAc
# Method in brief: as §1
# [6] = target: Gal3S(b1-4)[Fuc(a1-3)]GlcNAc6S
# Method in brief: as §1
# [7] = target: Gal3S4S(b1-4)GlcNAc
# Method in brief: as §1
# [8] = target: Gal3S6S(b1-4)GlcNAc
# Method in brief: as §1
# [9] = target: Gal3S6S(b1-4)GlcNAc6S
# Method in brief: as §1
# [10] = target: Gal4S(b1-4)GlcNAc
# Method in brief: as §1
# [11] = target: Gal4S6S(b1-4)GlcNAc
# Method in brief: as §1
# [12] = target: Gal6P(b1-4)GlcNAc
# Method in brief: as §1
# [13] = target: Gal6S(b1-3)GlcNAc
# Method in brief: as §1
# [14] = target: Gal6S(b1-3)GlcNAc6S
# Method in brief: as §1
# [15] = target: Gal6S(b1-4)Glc
# Method in brief: as §1
# [16] = target: Gal6S(b1-4)Glc6S
# Method in brief: as §1
# [17] = target: Gal6S(b1-4)GlcNAc
# Method in brief: as §1
# [18] = target: Gal6S(b1-4)GlcNAc6S
# Method in brief: as §1
# [19] = target: GalNAc(a1-3)Gal
# Method in brief: as §1
# [20] = target: GalNAc(a1-3)GalNAc
# Method in brief: as §1
# [21] = target: GalNAc(a1-3)GalNAc(b1-3)Gal(a1-4)Gal(b1-4)Glc
# Method in brief: as §1
# [22] = target: GalNAc(a1-3)GalNAc(b1-3)Gal(a1-4)Gal(b1-4)GlcNAc
# Method in brief: as §1
# [23] = target: GalNAc(b1-3)Gal
# Method in brief: as §1
# [24] = target: GalNAc(b1-3)Gal(a1-4)Gal(b1-4)GlcNAc
# Method in brief: as §1
# [25] = target: GalNAc(b1-3)Gal(a1-4)Gal(b1-4)GlcNAc(b1-3)Gal(b1-4)Glc
# Method in brief: as §1
# [26] = target: GalNAc(b1-3)Gal(a1-6)Gal(b1-4)Glc
# Method in brief: as §1
# [27] = target: GalNAc(b1-3)GalNAc
# Method in brief: as §1
# [28] = target: GalNAc(b1-3)GlcNAc
# Method in brief: as §1
# [29] = target: GalNAc(b1-4)Gal(b1-4)Glc
# Method in brief: as §1
# [30] = target: GalNAc(b1-4)GlcNAc
# Method in brief: as §1
# [31] = target: GalNAc(b1-4)GlcNAc(b1-2)Man
# Method in brief: as §1
# [32] = target: GalNAc(b1-4)GlcNAc(b1-2)Man(a1-3)[GalNAc(b1-4)GlcNAc(b1-2)Man(a1-6)]Man(b1-4)GlcNAc(b1-4)GlcNAc
# Method in brief: as §1
# [33] = target: GalNAc(b1-4)GlcNAc(b1-3)GalNAc(b1-4)GlcNAc
# Method in brief: as §1
# [34] = target: GalNAc(b1-4)GlcNAc6S
# Method in brief: as §1
# [35] = target: GalNAc(b1-6)GalNAc
# Method in brief: as §1
# [36] = target: GalNAc3S(b1-4)GlcNAc
# Method in brief: as §1
# [37] = target: GalNAc3S(b1-4)GlcNAc3S
# Method in brief: as §1
# [38] = target: GalNAc3S(b1-4)[Fuc(a1-3)]GlcNAc
# Method in brief: as §1
# [39] = target: GalNAc4S6S(b1-4)GlcNAc
# Method in brief: as §1
# [40] = target: GalNAc6S(b1-4)GlcNAc
# Method in brief: as §1
# [41] = target: Glc(a1-4)Glc
# Method in brief: as §1
# [42] = target: Glc(a1-4)Glc(a1-4)Glc(a1-4)Glc
# Method in brief: as §1
# [43] = target: Glc(a1-6)Glc(a1-6)Glc
# Method in brief: as §1
# [44] = target: Glc(a1-6)Glc(a1-6)Glc(a1-6)Glc
# Method in brief: as §1
# [45] = target: Glc(b1-4)Glc
# Method in brief: as §1
binder,measurement,setting,value
B1,glycan array binding signal (z-score),[1],0.238
same,glycan array binding signal (z-score),[2],-0.007
same,glycan array binding signal (z-score),[3],-0.465
same,glycan array binding signal (z-score),[4],-0.344
same,glycan array binding signal (z-score),[5],0.325
same,glycan array binding signal (z-score),[6],-0.418
same,glycan array binding signal (z-score),[7],-1.24
same,glycan array binding signal (z-score),[8],-0.067
same,glycan array binding signal (z-score),[9],-0.59
same,glycan array binding signal (z-score),[10],-0.558
same,glycan array binding signal (z-score),[11],0.199
same,glycan array binding signal (z-score),[12],-0.991
same,glycan array binding signal (z-score),[13],0.435
same,glycan array binding signal (z-score),[14],-0.505
same,glycan array binding signal (z-score),[15],0.962
same,glycan array binding signal (z-score),[16],0.298
same,glycan array binding signal (z-score),[17],0.112
same,glycan array binding signal (z-score),[18],-0.654
same,glycan array binding signal (z-score),[19],-0.715
same,glycan array binding signal (z-score),[20],-0.359
same,glycan array binding signal (z-score),[21],0.794
same,glycan array binding signal (z-score),[22],-0.596
same,glycan array binding signal (z-score),[23],-0.577
same,glycan array binding signal (z-score),[24],0.417
same,glycan array binding signal (z-score),[25],0.069
same,glycan array binding signal (z-score),[26],0.35
same,glycan array binding signal (z-score),[27],-0.455
same,glycan array binding signal (z-score),[28],-0.132
same,glycan array binding signal (z-score),[29],0.054
same,glycan array binding signal (z-score),[30],0.831
same,glycan array binding signal (z-score),[31],-0.626
same,glycan array binding signal (z-score),[32],0.317
same,glycan array binding signal (z-score),[33],0.68
same,glycan array binding signal (z-score),[34],0.365
same,glycan array binding signal (z-score),[35],-0.374
same,glycan array binding signal (z-score),[36],0.667
same,glycan array binding signal (z-score),[37],0.553
same,glycan array binding signal (z-score),[38],0.363
same,glycan array binding signal (z-score),[39],-0.289
same,glycan array binding signal (z-score),[40],0.258
same,glycan array binding signal (z-score),[41],-3.91
same,glycan array binding signal (z-score),[42],-0.712
same,glycan array binding signal (z-score),[43],-0.485
same,glycan array binding signal (z-score),[44],-0.147
same,glycan array binding signal (z-score),[45],-0.165

# Random excerpt: 2 records from the list, in no set order.
binder,measurement,setting,value
B1,glycan array binding signal (z-score),[31],-0.626
same,glycan array binding signal (z-score),[4],-0.344

# Some of the entries so far, as tab-separated lines.
binder	measurement	setting	value
B1	glycan array binding signal (z-score)	[21]	0.794
same	glycan array binding signal (z-score)	[22]	-0.596
